Data taken from PubChem BioAssay AID330 (DTP/NCI, 2004).
The list shows only some results of the screen, not a fair sample: it is rich in T/C values a quarter to a half above the control, in often repeated tests (any T/C) and in doses without a T/C. Further doses and runs are listed elsewhere. T/C is the treated group as % of the vehicle group. Some entries give survivors of the animals treated and no T/C: the source holds a T/C of zero for them, seemingly a mark for toxic or unscored doses. Some survivor counts are full or nearly so, which does not show that the dose was tolerated: survival well below the control is almost never listed, so the zero probably covers shortened survival too. Survivors were counted at the toxicity check, usually on the fifth day, unless a day is given; later deaths do not show. Schedule codes are those of the source, read here as Q, the interval in days (D) or hours (H), X, the number of doses. Some entries were tested several times; the results are listed from low to high. Where survival is the endpoint, the PubChem record calls one and a half times the control and up active, and a quarter to a half above the control has no call in these data; cut-offs in other NCI protocols can differ.

Tested on: P388 leukemia ip, CD2F1 mice, survival T/C
Experiment: NCI In Vivo Anticancer Drug Screen. Data for tumor model P388 Leukemia (intraperitoneal) in CD2F1 (CDF1) mice
Details: T/C endpoint: median survival time, higher T/C = longer survival
[1] = dose: 100.0 mg/kg/injection, schedule: Q04DX003 (ip), vehicle: saline with Tween-80
[2] = dose: 200.0 mg/kg/injection, schedule: Q04DX003 (ip), vehicle: saline with Tween-80
[3] = dose: 100.0 mg/kg/injection, schedule: Q01DX005 (ip), vehicle: saline
[4] = dose: 200.0 mg/kg/injection, schedule: Q01DX005 (ip), vehicle: saline
[5] = dose: 100.0 mg/kg/injection, schedule: Q01DX005 (ip), vehicle: saline with Tween-80
[6] = dose: 200.0 mg/kg/injection, schedule: Q01DX009 (ip), vehicle: saline
[7] = dose: 50.0 mg/kg/injection, schedule: Q01DX005 (ip), vehicle: saline
[8] = dose: 200.0 mg/kg/injection, schedule: Q01DX009 (ip), vehicle: saline with Tween-80

CC(=NCc1ccccc1)/C(=N\O)C(=O)Nc1ccc(Cl)cc1
survivor count [1]: 6 of 6 | survivor count [2]: 6 of 6

N=C=S.N=C=S.O=[N+]([O-])O.[Co+3].[NH2-].[NH2-].[NH2-].[NH2-]
survivor count (dose: 100.0 mg/kg/injection, schedule: Q01DX009 (ip), vehicle: Klucel (hydroxypropylcellulose) (HPC)): 0 of 6 | survivor count (dose: 200.0 mg/kg/injection, schedule: Q01DX009 (ip), vehicle: Klucel (hydroxypropylcellulose) (HPC)): 0 of 6

COc1cc2c(cc1OC)C(CCCCCCCC1NCCc3cc(OC)c(OC)cc31)NCC2 (stereo not given)
survivor count [3]: 1 of 6 | survivor count [4]: 0 of 6

CC(=N/NC(=S)NCCN1CCCC1)/C(C)=N\NC(=S)NCCN1CCCC1
survivor count [1]: 0 of 6 | survivor count [2]: 0 of 6 | survivor count (dose: 400.0 mg/kg/injection, schedule: Q04DX003 (ip), vehicle: saline with Tween-80): 0 of 6

NCCCNc1cc(O)cc2cccnc12
survivor count [4]: 2 of 5

O=C1C2CCC(C2)C1CN1CCCCC1 (stereo not given)
survivor count (dose: 50.0 mg/kg/injection, schedule: Q01DX005 (ip), vehicle: saline with Tween-80): 2 of 6 | survivor count [5]: 0 of 6 | survivor count (dose: 200.0 mg/kg/injection, schedule: Q01DX005 (ip), vehicle: saline with Tween-80): 0 of 6

O=C1c2cc([N+](=O)[O-])cc3cc([N+](=O)[O-])cc(c23)C(=O)N1CCNCCN1C(=O)c2cc([N+](=O)[O-])cc3cc([N+](=O)[O-])cc(c23)C1=O
T/C [5]: 130 % of control

N#Cc1ccc(OC(=O)Nc2c(Cl)cc(Cl)cc2Cl)cc1
survivor count (dose: 240.0 mg/kg/injection, schedule: Q01DX005 (ip), vehicle: saline with Tween-80): 6 of 6

CSc1nc(NC(C)C)nc(NC(C)C)n1
survivor count [2]: 6 of 6

C(/CSC/C=N/Nc1ccccc1)=N\Nc1ccccc1
survivor count [6]: 6 of 6

COc1cc(NCC(O)CN(CC(C)C)C2CCCC2)c2ncccc2c1 (stereo not given)
survivor count [7]: 1 of 4 and 2 of 5 | survivor count [3]: 0 of 5 | survivor count [4]: 0 of 5

C=C(C)CN1C(=O)C(C)S/C1=N/N=C1/SCC(=O)N1C (stereo not given)
survivor count (dose: 250.0 mg/kg/injection, schedule: Q01DX009 (ip), vehicle: saline): 6 of 6

CCN(CC)c1ccc(/C=N/Nc2c3c(nc4ccccc24)CCCC3)cc1
survivor count (dose: 25.0 mg/kg/injection, schedule: Q01DX005 (ip), vehicle: saline): 5 of 6 | survivor count [7]: 1 of 6 | survivor count [3]: 0 of 6 | survivor count [4]: 0 of 6

CC(C)(C)N1COCCOC1
T/C (dose: 50.0 mg/kg/injection, schedule: Q01DX009 (ip), vehicle: saline with Tween-80): 133 % of control | survivor count [8]: 0 of 6

C=CCN(CC=C)C(N)=Nc1ccc(Cl)cc1
survivor count (dose: 50.0 mg/kg/injection, schedule: Q01DX009 (ip), vehicle: saline): 0 of 6 | survivor count (dose: 100.0 mg/kg/injection, schedule: Q01DX009 (ip), vehicle: saline): 0 of 6 | survivor count [6]: 0 of 6

CC1=CC(=C2C(=O)c3ccccc3C2=O)C=C(C)N1CCN1CCCCC1
survivor count [4]: 2 of 6 | survivor count (dose: 240.0 mg/kg/injection, schedule: Q01DX005 (ip), vehicle: Klucel (hydroxypropylcellulose) (HPC)): 4 of 6

Cc1ccc(S(=O)(=O)OCCN(CCOS(=O)(=O)c2ccc(C)cc2)c2ccc(N=O)cc2)cc1
T/C (dose: 66.0 mg/kg/injection, schedule: Q04DX003 (ip), vehicle: saline sonified): 127 % of control | T/C (dose: 150.0 mg/kg/injection, schedule: Q04DX003 (ip), vehicle: saline sonified): 140 % of control

Cn1c(O)c(N=O)c(=O)n(C)c1=O
survivor count [8]: 0 of 6
